Data reported in paper PMC12636028 (Journal of the American Chemical Society, 2025).

Test: general procedure: Fmoc solid-phase peptide synthesis; Wang resin; PyBOP/DIEA
Details: whole synthesis

## NO2A-NMeM-T-Ahx-KuE
Scale 0.128 mmol
  isolated mass: 0.024 mg
  isolated yield: 13%

## NO2A-M-Tyr(3-I)-Ahx-KuE
Scale 0.128 mmol
  isolated mass: 0.023 mg
  isolated yield: 13%

## NO2A-S-Tyr(3-I)-Ahx-KuE
Scale 0.128 mmol
  isolated mass: 0.020 mg
  isolated yield: 11%

## NO2A-NMeS-Tyr(3-I)-Ahx-KuE
  isolated mass: 0.028 mg
Scale of the general procedure 0.13 mmol (model tripeptides), 0.128 mmol printed for target
  isolated yield: 16%

## NO2A-NMeG-Tyr(3-I)-Ahx-KuE
Scale 0.128 mmol
  isolated mass: 0.026 mg
  isolated yield: 15%
